In publication PMC6355928 one finds binding data, which are given here for 1 substance.

The chains behind the UniProt entries cited, without tags or fusion partners. Where a name states a change or a piece, a line headed by the entry shows the natural chain unless it says otherwise.
UniProt Q8N8N0: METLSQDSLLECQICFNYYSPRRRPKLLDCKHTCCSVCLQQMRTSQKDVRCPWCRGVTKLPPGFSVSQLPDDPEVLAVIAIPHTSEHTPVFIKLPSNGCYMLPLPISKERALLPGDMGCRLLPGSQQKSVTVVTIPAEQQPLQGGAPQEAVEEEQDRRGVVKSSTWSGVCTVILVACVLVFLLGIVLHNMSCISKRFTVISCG

These are yes or no findings as the source states them, for the method shown. A result given as binding can be weak or reduced; the word gives no strength.

Assay [1] has as its target GST-RNF152 (UniProt Q8N8N0). In words: pull-down; GST-RNF152 and His-Rheb; Rheb loaded with GDP in advance; both purified.
In assay [2] the target is GST-RNF152 (UniProt Q8N8N0). Kind of assay: pull-down; His-Rheb incubated with 10 ug purified GST or GST-RNF152, glutathione sepharose 4B, bound Rheb detected by Western blotting; both purified. A general note: Immunoblotting shows a protein as a band on a membrane.

On to His-Rheb (from UniProt Q15382 1-184), for which the binding result in the assay with GST-RNF152 [1] and in the assay with GST-RNF152 [2] was “binds” each time.
